The values below come from the supplement of paper PMC5836539.

Protein sequences, listed by entry. Tags and fused reporters are not part of them. Lines headed by an entry give the natural chain unless they say otherwise; changes in a name come on top.
UniProt Q12888: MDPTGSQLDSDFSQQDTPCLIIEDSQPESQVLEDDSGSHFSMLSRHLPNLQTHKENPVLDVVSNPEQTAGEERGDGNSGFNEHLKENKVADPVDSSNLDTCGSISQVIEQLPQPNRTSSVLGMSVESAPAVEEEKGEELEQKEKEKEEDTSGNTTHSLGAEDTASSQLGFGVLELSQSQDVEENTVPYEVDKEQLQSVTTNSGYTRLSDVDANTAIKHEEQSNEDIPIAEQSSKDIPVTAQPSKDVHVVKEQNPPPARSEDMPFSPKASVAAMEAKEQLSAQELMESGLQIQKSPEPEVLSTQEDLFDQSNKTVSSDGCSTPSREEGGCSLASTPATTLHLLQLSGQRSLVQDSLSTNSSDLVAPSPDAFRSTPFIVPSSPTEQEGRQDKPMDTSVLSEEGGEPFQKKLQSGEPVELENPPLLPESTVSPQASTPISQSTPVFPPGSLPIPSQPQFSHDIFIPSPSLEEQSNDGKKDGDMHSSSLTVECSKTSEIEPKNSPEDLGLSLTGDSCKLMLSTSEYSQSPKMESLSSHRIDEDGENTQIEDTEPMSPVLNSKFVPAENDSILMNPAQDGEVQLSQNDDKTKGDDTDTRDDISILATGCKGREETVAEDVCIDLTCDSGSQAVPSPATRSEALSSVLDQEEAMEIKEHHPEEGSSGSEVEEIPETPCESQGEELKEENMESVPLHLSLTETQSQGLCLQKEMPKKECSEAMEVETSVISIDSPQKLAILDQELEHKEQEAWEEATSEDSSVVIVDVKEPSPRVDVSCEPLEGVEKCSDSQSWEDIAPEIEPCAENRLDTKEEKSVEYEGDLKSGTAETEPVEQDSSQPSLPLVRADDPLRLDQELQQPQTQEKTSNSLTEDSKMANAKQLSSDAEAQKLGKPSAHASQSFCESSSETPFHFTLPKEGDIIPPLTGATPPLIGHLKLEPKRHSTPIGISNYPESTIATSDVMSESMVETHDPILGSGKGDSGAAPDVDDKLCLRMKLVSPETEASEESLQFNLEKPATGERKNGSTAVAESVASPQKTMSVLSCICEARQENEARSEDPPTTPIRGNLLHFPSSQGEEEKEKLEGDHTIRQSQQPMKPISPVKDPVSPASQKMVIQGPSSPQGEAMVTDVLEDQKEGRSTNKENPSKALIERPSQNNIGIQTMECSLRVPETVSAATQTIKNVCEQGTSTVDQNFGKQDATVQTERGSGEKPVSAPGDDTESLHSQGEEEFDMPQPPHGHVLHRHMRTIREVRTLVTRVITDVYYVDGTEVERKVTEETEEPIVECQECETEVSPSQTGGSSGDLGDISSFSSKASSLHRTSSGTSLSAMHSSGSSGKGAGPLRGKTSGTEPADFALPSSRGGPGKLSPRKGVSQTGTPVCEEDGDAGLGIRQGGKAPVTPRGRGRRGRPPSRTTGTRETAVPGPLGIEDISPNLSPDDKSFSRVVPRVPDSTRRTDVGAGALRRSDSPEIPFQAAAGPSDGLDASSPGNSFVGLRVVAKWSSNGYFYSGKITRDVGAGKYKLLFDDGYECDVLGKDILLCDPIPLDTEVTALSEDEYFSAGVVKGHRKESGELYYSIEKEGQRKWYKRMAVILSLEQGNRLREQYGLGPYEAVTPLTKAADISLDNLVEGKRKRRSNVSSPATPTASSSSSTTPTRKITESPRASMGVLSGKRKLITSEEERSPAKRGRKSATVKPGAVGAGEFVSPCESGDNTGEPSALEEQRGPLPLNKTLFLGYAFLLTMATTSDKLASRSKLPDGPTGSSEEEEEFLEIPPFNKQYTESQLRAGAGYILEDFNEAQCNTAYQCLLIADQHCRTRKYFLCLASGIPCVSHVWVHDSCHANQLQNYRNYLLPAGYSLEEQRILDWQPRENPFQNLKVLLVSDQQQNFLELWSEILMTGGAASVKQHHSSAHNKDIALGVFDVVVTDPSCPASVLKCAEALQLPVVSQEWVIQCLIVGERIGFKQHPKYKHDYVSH
UniProt O60784, whole entry, looked up: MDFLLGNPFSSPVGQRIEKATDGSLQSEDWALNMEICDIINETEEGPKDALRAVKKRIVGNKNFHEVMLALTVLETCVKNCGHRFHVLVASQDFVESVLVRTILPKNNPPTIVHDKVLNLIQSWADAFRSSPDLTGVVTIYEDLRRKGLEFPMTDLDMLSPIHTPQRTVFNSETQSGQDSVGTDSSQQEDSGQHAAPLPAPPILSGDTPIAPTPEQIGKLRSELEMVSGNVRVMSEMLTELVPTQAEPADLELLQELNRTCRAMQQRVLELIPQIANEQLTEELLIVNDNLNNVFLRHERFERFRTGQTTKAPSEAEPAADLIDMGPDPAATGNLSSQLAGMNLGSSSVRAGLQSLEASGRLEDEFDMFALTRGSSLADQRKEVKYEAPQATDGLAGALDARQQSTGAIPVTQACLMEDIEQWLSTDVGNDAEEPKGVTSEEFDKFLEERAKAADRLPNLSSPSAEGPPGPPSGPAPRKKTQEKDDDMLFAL
UniProt Q08170: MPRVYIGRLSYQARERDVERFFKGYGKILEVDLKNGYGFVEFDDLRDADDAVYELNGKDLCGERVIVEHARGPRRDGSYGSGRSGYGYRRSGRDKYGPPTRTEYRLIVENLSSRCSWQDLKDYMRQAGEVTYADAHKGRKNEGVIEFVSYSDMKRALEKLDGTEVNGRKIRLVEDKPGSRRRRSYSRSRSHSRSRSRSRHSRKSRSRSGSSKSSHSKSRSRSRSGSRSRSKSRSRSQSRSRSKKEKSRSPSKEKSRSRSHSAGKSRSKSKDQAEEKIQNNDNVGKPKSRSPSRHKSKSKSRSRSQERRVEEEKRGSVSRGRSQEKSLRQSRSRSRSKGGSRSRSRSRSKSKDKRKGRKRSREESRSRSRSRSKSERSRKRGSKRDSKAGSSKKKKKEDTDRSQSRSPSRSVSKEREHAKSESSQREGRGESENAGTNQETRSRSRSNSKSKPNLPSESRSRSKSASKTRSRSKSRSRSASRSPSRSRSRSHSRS
UniProt Q6ZRV2: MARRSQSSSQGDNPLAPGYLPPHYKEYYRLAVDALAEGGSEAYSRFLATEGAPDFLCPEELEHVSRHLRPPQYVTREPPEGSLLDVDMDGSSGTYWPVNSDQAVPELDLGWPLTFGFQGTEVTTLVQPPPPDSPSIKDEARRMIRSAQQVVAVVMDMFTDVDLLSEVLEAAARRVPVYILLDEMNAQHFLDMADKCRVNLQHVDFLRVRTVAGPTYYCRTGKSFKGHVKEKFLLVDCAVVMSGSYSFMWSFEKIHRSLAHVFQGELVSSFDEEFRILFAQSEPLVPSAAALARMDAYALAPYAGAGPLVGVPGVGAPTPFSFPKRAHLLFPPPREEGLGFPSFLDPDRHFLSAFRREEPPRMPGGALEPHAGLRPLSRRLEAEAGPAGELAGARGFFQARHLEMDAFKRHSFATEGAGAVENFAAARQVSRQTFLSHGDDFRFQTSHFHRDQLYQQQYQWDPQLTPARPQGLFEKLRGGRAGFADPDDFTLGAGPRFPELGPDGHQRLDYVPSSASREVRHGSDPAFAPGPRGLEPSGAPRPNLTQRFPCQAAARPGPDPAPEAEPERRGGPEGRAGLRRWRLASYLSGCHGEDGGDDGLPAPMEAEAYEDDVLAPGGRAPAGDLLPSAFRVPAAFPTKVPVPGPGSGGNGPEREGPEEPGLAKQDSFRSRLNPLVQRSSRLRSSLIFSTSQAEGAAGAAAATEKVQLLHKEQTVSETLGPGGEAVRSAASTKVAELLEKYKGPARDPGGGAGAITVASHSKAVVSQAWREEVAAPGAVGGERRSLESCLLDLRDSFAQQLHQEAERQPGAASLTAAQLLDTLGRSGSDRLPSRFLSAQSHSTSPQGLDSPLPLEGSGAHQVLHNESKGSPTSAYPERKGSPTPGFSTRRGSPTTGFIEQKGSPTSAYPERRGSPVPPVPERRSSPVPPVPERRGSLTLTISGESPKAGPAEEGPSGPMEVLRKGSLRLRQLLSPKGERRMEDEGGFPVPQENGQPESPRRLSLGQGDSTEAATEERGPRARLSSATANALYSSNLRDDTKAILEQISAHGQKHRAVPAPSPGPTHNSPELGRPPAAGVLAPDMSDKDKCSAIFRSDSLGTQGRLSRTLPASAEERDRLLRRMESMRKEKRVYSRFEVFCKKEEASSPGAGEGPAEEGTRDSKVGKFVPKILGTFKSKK
UniProt Q13547, whole entry, looked up: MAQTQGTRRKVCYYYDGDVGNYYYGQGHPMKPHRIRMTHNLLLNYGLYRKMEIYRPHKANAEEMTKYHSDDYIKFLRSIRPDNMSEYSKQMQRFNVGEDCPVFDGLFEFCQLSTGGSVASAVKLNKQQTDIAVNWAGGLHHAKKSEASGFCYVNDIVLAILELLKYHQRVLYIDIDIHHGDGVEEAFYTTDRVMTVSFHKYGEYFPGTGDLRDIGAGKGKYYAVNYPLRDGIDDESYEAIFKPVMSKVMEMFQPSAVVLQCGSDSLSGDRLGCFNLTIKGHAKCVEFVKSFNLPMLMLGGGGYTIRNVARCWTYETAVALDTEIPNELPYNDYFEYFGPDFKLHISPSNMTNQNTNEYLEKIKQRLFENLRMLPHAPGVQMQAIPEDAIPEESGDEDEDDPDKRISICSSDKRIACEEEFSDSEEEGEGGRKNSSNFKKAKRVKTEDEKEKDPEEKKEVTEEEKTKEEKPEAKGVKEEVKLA
UniProt P35579, whole entry, looked up: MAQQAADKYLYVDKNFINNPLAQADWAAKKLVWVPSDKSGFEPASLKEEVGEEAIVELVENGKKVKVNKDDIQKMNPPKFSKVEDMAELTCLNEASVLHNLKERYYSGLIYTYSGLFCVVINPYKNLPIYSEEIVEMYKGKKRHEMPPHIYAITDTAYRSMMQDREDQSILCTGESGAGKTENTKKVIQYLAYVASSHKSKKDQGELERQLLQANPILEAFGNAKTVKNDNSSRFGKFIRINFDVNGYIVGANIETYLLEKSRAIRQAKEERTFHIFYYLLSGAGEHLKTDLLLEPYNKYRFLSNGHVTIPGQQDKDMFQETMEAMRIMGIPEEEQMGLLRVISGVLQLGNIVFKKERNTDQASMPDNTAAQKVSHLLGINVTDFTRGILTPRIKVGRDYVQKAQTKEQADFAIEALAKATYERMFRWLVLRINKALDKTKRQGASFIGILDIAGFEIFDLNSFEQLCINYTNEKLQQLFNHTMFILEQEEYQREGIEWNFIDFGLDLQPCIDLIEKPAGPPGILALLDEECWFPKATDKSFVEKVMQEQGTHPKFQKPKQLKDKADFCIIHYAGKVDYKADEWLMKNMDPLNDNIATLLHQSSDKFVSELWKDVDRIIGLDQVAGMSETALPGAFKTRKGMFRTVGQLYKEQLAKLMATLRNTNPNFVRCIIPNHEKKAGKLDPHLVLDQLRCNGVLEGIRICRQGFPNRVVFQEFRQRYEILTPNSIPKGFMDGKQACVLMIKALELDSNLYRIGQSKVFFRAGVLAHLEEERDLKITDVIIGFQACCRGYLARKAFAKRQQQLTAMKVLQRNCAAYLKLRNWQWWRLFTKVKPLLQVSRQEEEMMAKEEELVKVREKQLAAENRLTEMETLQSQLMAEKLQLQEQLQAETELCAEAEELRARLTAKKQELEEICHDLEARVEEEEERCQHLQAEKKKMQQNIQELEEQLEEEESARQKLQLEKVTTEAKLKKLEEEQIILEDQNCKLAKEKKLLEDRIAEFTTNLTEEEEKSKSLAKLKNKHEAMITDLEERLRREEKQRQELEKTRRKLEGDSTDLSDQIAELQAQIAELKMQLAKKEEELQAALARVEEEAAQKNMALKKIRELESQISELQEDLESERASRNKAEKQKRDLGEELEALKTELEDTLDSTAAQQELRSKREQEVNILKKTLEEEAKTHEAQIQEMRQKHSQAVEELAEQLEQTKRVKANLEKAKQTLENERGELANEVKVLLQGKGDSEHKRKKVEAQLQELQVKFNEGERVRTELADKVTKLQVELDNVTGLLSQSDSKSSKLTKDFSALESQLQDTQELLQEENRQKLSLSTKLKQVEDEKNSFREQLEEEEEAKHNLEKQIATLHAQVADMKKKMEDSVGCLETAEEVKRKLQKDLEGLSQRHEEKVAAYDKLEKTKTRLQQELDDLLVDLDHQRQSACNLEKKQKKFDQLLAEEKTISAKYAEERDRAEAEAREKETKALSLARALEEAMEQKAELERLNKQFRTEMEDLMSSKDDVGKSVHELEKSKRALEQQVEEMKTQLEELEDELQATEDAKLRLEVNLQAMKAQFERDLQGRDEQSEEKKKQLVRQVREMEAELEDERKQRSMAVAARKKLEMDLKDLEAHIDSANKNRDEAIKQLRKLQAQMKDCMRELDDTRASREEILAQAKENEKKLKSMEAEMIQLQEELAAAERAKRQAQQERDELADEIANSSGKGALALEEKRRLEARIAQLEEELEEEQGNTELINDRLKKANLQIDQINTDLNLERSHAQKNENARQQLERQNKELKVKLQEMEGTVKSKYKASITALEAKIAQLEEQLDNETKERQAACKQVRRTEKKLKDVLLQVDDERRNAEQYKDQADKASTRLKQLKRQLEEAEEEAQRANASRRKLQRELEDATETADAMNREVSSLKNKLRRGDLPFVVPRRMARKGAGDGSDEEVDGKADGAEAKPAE

± gives the standard deviation of the averaged measurements. Single values are uncertain here, since repeats match poorly.

Compound in this experiment: CC[C@@H](C)Nc1cc(C(=O)N[C@H]2C[C@H]3CC[C@@H](C2)N3c2ccc(C(=O)C3CC3)cn2)c(C)cc1C(N)=O [XL888]
In words: phosphopeptide melting temperature shift (XL888 minus DMSO); higher = stabilised by drug treatment. As to conditions: 100 µM; treatment time 2 h; layout: intact cells; SK-Mel 28. The procedure:
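Phospho-TPP in intact SK-Mel 28 cells treated with 100 uM XL888 or DMSO for 2 h, heated at 10 temperatures (37-67 C) for 3 min, soluble fraction TMT10plex-labelled and TiO2 phospho-enriched. Melting curves were fitted per phosphopeptide; the value is the melting point difference (drug minus vehicle) in each of two biological replicates.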
“NOC2L phosphosite_672 (phosphosite position: 672) (UniProt Q9Y3T9)”: the “phosphopeptide melting temperature shift” value was found to be 5.03 °C.
For “UniProt Q7Z460-2_phosphosite_646 (phosphosite position: 646)” the value was -2.09 °C; for “UniProt Q8N4S0-2_phosphosite_131 (phosphosite position: 131)”, 2.57 °C; for “UniProt Q96G74-2_phosphosite_479 (phosphosite position: 479)”, 2.32 °C.
As to “TP53BP1 phosphosite_294 (phosphosite position: 294) (UniProt Q12888)”, the “phosphopeptide melting temperature shift” value was found to be 1.41 °C.
For the target “C5orf30 phosphosite_167 (phosphosite position: 167) (UniProt Q96GV9)”, the “phosphopeptide melting temperature shift” value came out at 2.77 ± 0.26 °C.
For “TOM1 phosphosite_355 (phosphosite position: 355) (UniProt O60784)” the value was -0.989 ± 0.75 °C; for “UniProt P28066_phosphosite_56 (phosphosite position: 56)”, 0.892 °C.
For “ARHGEF40 phosphosite_419 (phosphosite position: 419) (UniProt Q8TER5)” the value was -0.371 ± 0.38 °C.
With “ZNF579 phosphosite_483 (phosphosite position: 483) (UniProt Q8NAF0)”, the “phosphopeptide melting temperature shift” value was found to be 0.926 °C.
As for “SUZ12 phosphosite_583 (phosphosite position: 583) (UniProt Q15022)”, the figure is 3.06 ± 1.1 °C; as for “UniProt Q9H4L5-5_phosphosite_265 (phosphosite position: 265)”, 2.12 °C.
For “UniProt Q08170_phosphosite_269 (phosphosite position: 269)” the value was 0.129 ± 0.021 °C.
As for “UniProt A3KN83-3_phosphosite_691 (phosphosite position: 691)”, the figure is 1.86 ± 1.5 °C; as for “UniProt Q9Y4F5-3_phosphosite_1478 (phosphosite position: 1478)”, -0.367 ± 0.27 °C.
For “SCAF1 phosphosite_500 (phosphosite position: 500) (UniProt Q9H7N4)”, the “phosphopeptide melting temperature shift” value stood at 4.02 °C.
Regarding “UniProt O75494-2_phosphosite_157 (phosphosite position: 157)”, the “phosphopeptide melting temperature shift” value came to 6.38 °C.
In the case of “UniProt Q9NYF8-3_phosphosite_220 (phosphosite position: 220)”, the “phosphopeptide melting temperature shift” value turned out to be 0.345 ± 1.5 °C.
As for “UniProt Q9P0V3-2_phosphosite_296 (phosphosite position: 296)”, the figure is -0.414 ± 2.5 °C; as for “UniProt Q9NRA8-2_phosphosite_77 (phosphosite position: 77)”, 0.319 ± 0.27 °C.
Regarding “FAM83H phosphosite_892 (phosphosite position: 892) (UniProt Q6ZRV2)”, the “phosphopeptide melting temperature shift” value is -2.37 ± 3.4 °C.
“GIGYF2 phosphosite_160 (phosphosite position: 160) (UniProt Q6Y7W6)”: the “phosphopeptide melting temperature shift” value stood at 1.11 ± 0.63 °C.
For “UniProt P13807-2_phosphosite_581 (phosphosite position: 581)” the value was 2.19 ± 1.1 °C; for “C7orf25 phosphosite_208 (phosphosite position: 208) (UniProt Q9BPX7)”, 0.658 °C.
For “HDAC1 phosphosite_423 (phosphosite position: 423) (UniProt Q13547)” the value was 1.52 ± 0.47 °C.
“MYH9 phosphosite_1714 (phosphosite position: 1714) (UniProt P35579)”: the “phosphopeptide melting temperature shift” value was -0.931 °C.
In the case of “UniProt Q9ULJ3_phosphosite_345 (phosphosite position: 345)”, the “phosphopeptide melting temperature shift” value was 1.53 ± 0.58 °C.
